In PMC3369947:
Results are given in words; binding and its absence hold for the method and conditions named. Binding seen in cells or lysates may run through a third protein. Some results given as binding are weak or reduced against the parent protein; the word gives no strength. Sequences can lack the tags named with a protein.

Experiments:
[1] = target: T1, HA-tagged Slz1 (S. cerevisiae) (UniProt P40167); assay: co-IP; extracts of meiotic culture 3 hours after meiotic induction; lysis buffer 150 mM NaCl, 50 mM Tris pH 7.5, 1% NP40; HA-conjugated agarose beads, three hours; Western with anti-myc; myc-Ime4 strain without HA-tags as control
T1 sequence: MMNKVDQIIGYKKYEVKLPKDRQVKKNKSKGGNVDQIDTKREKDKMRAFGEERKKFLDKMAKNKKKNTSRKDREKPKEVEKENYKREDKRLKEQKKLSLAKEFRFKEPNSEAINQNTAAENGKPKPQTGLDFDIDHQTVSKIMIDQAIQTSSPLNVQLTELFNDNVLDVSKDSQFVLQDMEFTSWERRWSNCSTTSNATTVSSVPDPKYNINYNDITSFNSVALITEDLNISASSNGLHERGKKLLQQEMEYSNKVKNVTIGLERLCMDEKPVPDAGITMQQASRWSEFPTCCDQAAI

[2] = target: T2, HA-tagged Mum2 (S. cerevisiae) (UniProt P38236); assay: as above
T2 sequence: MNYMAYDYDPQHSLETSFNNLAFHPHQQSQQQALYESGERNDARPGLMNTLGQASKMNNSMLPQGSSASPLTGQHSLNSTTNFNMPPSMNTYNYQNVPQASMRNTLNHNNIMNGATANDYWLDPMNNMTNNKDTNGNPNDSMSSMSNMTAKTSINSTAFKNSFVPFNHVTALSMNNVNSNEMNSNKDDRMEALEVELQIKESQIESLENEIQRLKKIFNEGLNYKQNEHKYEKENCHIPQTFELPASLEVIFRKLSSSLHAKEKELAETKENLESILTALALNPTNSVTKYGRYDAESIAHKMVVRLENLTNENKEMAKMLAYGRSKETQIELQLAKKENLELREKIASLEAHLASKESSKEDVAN

- binding [1]: binds
- binding [2]: binds
B1: myc-tagged Ime4 (enzyme, UniProt P41833 1-600)
chain: MINDKLVHFLIQNYDDILRAPLSGQLKDVYSLYISGGYDDEMQKLRNDKDEVLQFEQFWNDLQDIIFATPQSIQFDQNLLVADRPEKIVYLDVFSLKILYNKFHAFYYTLKSSSSSCEEKVSSLTTKPEADSEKDQLLGRLLGVLNWDVNVSNQGLPREQLSNRLQNLLREKPSSFQLAKERAKYTTEVIEYIPICSDYSHASLLSTSVYIVNNKIVSLQWSKISACQENHPGLIECIQSKIHFIPNIKPQTDISLGDCSYLDTCHKLNTCRYIHYLQYIPSCLQERADRETASENKRIRSNVSIPFYTLGNCSAHCIKKALPAQWIRCDVRKFDFRVLGKFSVVIADPAWNIHMNLPYGTCNDIELLGLPLHELQDEGIIFLWVTGRAIELGKESLNNWGYNVINEVSWIKTNQLGRTIVTGRTGHWLNHSKEHLLVGLKGNPKWINKHIDVDLIVSMTRETSRKPDELYGIAERLAGTHARKLEIFGRDHNTRPGWFTIGNQLTGNCIYEMDVERKYQEFMKSKTGTSHTGTKKIDKKQPSKLQQQHQQQYWNNMDMGSGKYYAEAKQNPMNQKHTPFESKQQQKQQFQTLNNLYFAQ
